# Results are given in words; binding and its absence hold for the method and conditions named. Some binding calls cover weakened binding; strength is not graded here.
# The chains behind the UniProt entries cited, without tags or fusion partners. Where a name states a change or a piece, a line headed by the entry shows the natural chain unless it says otherwise.
# UniProt Q9NZD1: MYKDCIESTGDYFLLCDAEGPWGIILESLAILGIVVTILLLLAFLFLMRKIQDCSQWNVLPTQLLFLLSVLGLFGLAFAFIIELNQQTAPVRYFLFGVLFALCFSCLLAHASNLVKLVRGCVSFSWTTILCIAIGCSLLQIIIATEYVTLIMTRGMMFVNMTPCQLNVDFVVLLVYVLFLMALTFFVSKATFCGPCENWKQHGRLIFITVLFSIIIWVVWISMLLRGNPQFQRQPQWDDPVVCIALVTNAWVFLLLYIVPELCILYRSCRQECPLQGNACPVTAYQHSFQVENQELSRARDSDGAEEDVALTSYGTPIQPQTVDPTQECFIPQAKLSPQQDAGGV
# B1: 07A04 IgG (antibody, V domains shown)
# VH: QVTLKESGPGILQPSHTLSLTCSFSGFSLSTYGMGVNWIRQPSGKGLEWLASIWWNGNTYNNPSLKSRLTVSKDTSNNQAFLKVTSVDTADTATYYCVHTRGIIRGRGLFFDYWGQGVMVTVSS
# VL: DVQMTQSPYNLAASPGESVSINCKASKSISKYLAWYQQKPGKANKLLIYDGSTLQSGIPSRFSGSGSGTDFTLTIRSLEPEDFGLYYCQQHNEYPLTFGSGTKLEIKR
# Target: human GPRC5D (human) (UniProt Q9NZD1)
# Experiment: cell ELISA on CHO cells expressing human GPRC5D
binder,measurement,value
B1,binding,binds

# Source: US20220411491A1
